# Reference: PubChem BioAssay AID540276 (National Center for Advancing Translational Sciences (NCATS), 2011)
# “And” between values parts separate entries of the source, which are not always exact repeats. Equal values may be shown once. Out of some 300,000 compounds screened, about 5,400 (1.8%) were called active. Inconclusive means that the source gave no clear call. Such entries were picked first, then a sample of the others. The call rests on the fitted dose curve; tested in HEK293 cells. A potency beside an inconclusive call is a rough fit, not a confirmed value.
# Assay: qHTS for inhibitors of binding or entry into cells for Marburg Virus
# Details: Marburg virus pseudotyped entry inhibition, cell reporter; activity change, negative = inhibition: at 37.8 µM (top of the series) unless noted
# On the % scale 0 is the no-effect control and ±100 the full control effect; potency means the concentration at half of the fitted maximal effect.
SMILES,Potency,"activity change, negative = inhibition"
CC1C(c2cccs2)=[N+]([O-])C(C)(C(=O)c2cccs2)N1O (stereo unspecified),"inconclusive: 35.5 µM [activator, single point]",–
Cc1cc(C)cc(NC(=O)CSc2nc3c(oc4ccccc43)c(=O)n2-c2ccccc2F)c1,"inconclusive: 6.31 µM [inhibitor, partial curve, poor fit]",–
CC1CCN(CCc2nc3cc(NC(=O)COc4ccc([N+](=O)[O-])cc4)ccc3n2C)CC1,"inconclusive: 7.94 µM [inhibitor, partial curve, poor fit]",–
OC(CNCCCN1CCCCC1)COc1ccccc1 (stereo unspecified),"inconclusive: 35.5 µM [inhibitor, single point]",–
COc1cc(NC(=O)NCc2ccco2)ccc1-c1ccc(NC(=O)NCc2ccco2)cc1OC,"inconclusive: 0.562 µM [inhibitor, full curve, poor fit]",–
Cc1ccccc1N1CCN(c2ccc(NC(=O)C3CCCCC3C(=O)O)cc2)CC1 (stereo unspecified),"inconclusive: 1.26 µM [activator, single point]",–
O=C(CN(Cc1ccccc1Cl)C(=O)CN1C(=O)CSc2ccccc21)NC1CC1,"inconclusive: 1 µM [inhibitor, full curve, poor fit]",–
O=C(NCCCNC(=O)c1ccccn1)c1ccc(Cl)cc1,–,inactive: 13% [at 46.1 µM]
CC(=O)N1CCN(c2ccc(NC(=O)/C=C/c3ccccc3)cc2)CC1,–,inactive: 2.07% [at 46.1 µM]
Cc1ccc(C)c(Cn2c3ccccc3c3cnn(CC(=O)NCCCc4ccccc4)c(=O)c32)c1,"inconclusive: 20 µM [activator, single point]",–
Cc1ccc(OCC(=O)N2CCCCCC2)c(C)c1,"inconclusive: 18.3 µM [activator, partial curve, poor fit]",–
Cc1nc2ccccc2c2oc(C(=O)NCc3ccccn3)cc12,–,inactive: -18.8%
CCN(CC)c1ccc2oc(=O)c(C)nc2c1,"inconclusive: 25.9 µM [inhibitor, single point]",–
Cc1ccnc(NC(=O)C2CCC(CNc3c(N4CCCC4)c(=O)c3=O)CC2)c1 (stereo unspecified),–,inactive: 0.526%
COC(=O)c1ccc(OCC(O)CN2CCN(C(=O)c3ccco3)CC2)c(OC)c1 (stereo unspecified),"inconclusive: 35.5 µM [activator, single point]",–
CCOC(=O)C1(CCCc2ccccc2)CCN(C(=O)C2CCCO2)CC1 (stereo unspecified),"inconclusive: 6.31 µM [inhibitor, partial curve]",–
O=C(NCc1n[nH]c(=S)n1-c1ccc(Br)cc1)c1ccc(S(=O)(=O)N2CCCCC2)cc1,"inconclusive: 12.6 µM [activator, single point]",–
Nc1nc2ccc(Oc3ccccc3)cc2s1,"inconclusive: 35.5 µM [inhibitor, single point]",–
O=C(NNC(=O)c1ccc2c(c1)OCO2)NC12CC3CC(CC(C3)C1)C2,"inconclusive: 3.55 µM [activator, single point]",–
Cc1ccc(S(=O)(=O)N(Cc2cc3cccc(C)c3[nH]c2=O)c2ccccc2)cc1,"inconclusive: 17.8 µM [inhibitor, single point]",–
O=C(COc1ccccc1CNCc1ccccc1)Nc1ccccc1,"inconclusive: 23.1 µM [inhibitor, single point]",–
COC(=O)c1c(C)[nH]c(C(=O)OCC(=O)c2c(N)n(CC(C)C)c(=O)n(C)c2=O)c1C,"inconclusive: 7.94 µM [inhibitor, partial curve, poor fit]",–

SMILES,Potency,"activity change, negative = inhibition"
COc1ccccc1C(=O)CSc1cccc[n+]1[O-],"inconclusive: 5.62 µM [inhibitor, single point]",–
COCc1c(C(=O)Nc2cccc(S(=O)(=O)N3CCCCC3)c2)oc2ccccc12,"inconclusive: 0.891 µM [inhibitor, partial curve, poor fit]",–
CCOC(=O)c1oc2cccc(OCC(O)CNC(C)C)c2c1C (stereo unspecified),"inconclusive: 16.4 µM [inhibitor, single point]",–
Cc1ccc(NC(=O)CNC(=O)c2cccs2)cc1S(=O)(=O)Nc1ccc(Cl)cc1,"inconclusive: 11.6 µM [inhibitor, partial curve, poor fit]",–
O=[N+]([O-])c1ccc(-c2nc(-c3ccc(F)cc3)c(-c3ccncc3)[nH]2)cc1,active: 6.31 µM and active: 8.2 µM,–
CN(c1ccc(O)cc1)c1nc(-c2cccs2)cs1,–,inactive: 1.04% [at 46.1 µM]
Cc1ccc(-n2c(N)c(C(=O)N3CCOCC3)sc2=S)c(C)c1,"inconclusive: 25.9 µM [activator, partial curve, poor fit]",–
COc1ccc(CN2C(=O)NC(=O)/C(=C\c3ccc(OC)c(OC)c3OC)C2=O)cc1,"inconclusive: 6.31 µM [inhibitor, single point]",–
O=C(NN=C1C[C@@H](O)[C@H](O)[C@H]2[C@@H]3C(=O)N(C[C@@H]4CCCO4)C(=O)[C@@H]3CC[C@H]12)OCc1ccccc1,"inconclusive: 2.66 µM [activator, partial curve, poor fit]",–
N#Cc1c(SCc2ccc(Cl)cc2)sc(C(=O)c2ccccc2)c1N,–,inactive: -29.9%
OCC1(CCOc2ccccc2)CCN(Cc2nc3ccc(F)cc3[nH]2)CC1,"inconclusive: 15.8 µM [inhibitor, partial curve, poor fit]",–
CN(C)C(CNC(=O)CSc1nc2ccccc2c(=O)n1Cc1ccco1)c1ccccc1 (stereo unspecified),"inconclusive: 31.6 µM [inhibitor, single point]",–
OC(Cc1ccnc2ccccc12)C(Cl)(Cl)Cl (stereo unspecified),"inconclusive: 35.5 µM [inhibitor, partial curve, poor fit]",–
Cc1ccc(Cn2ccc(NC(=O)c3cc(-c4ccccc4)on3)n2)cc1,–,inactive: -22.6%
Cn1cnc(S(=O)(=O)NC2CCN(Cc3ccccc3)CC2)c1,"inconclusive: 0.631 µM [activator, partial curve, poor fit]",–
O=C1[C@@H]2[C@@H]3C[C@@H]([C@H]4ON=C(c5ccc(OCc6ccccc6)cc5)[C@@H]34)[C@@H]2C(=O)N1c1ccc2c(c1)OCO2,active: 4.47 µM,–
Clc1ccccc1CONc1ncnc2nonc12,–,inactive: -36.6%
N#Cc1sc(NCc2ccccc2)nc1Cl,"inconclusive: 14.1 µM [activator, single point]",–
Nc1ccc(OCc2ccco2)cc1,"inconclusive: 0.316 µM [activator, full curve, poor fit]",–
COCCN(C(=O)COC(=O)c1ccccc1Oc1ccccc1)c1c(N)n(Cc2ccccc2)c(=O)[nH]c1=O,–,inactive: -23.5%
CCOc1cc(C(=O)N(C)CC(=O)Nc2cccc(F)c2)ccc1OCC(=O)N1CCOCC1,–,inactive: 10.9%
COC(=O)c1cc(NC(=O)CN(c2cccc(OC)c2)S(=O)(=O)c2ccccc2)ccc1Cl,active: 15.8 µM,–

SMILES,Potency,"activity change, negative = inhibition"
CCN(CC)S(=O)(=O)c1ccc(OC)c(NC(=O)c2cc([N+](=O)[O-])ccc2Cl)c1,"inconclusive: 22.4 µM [inhibitor, single point]",–
Cc1occc1C(=O)NC1CCCCCC1,"inconclusive: 5.62 µM [activator, single point]",–
Cc1[nH]n(-c2ccccc2)c(=O)c1C=Nc1cccc2cccnc12,active: 8.91 µM,–
CCN(CC)c1nc(SCCOC(=O)Nc2ccccc2)nc(N(CC)CC)n1,"inconclusive: 29.1 µM [inhibitor, single point]",–
COc1ccc(N2C(=O)C(Cl)=C(Nc3ccccc3OC)C2=O)cc1,"inconclusive: 6.31 µM [activator, single point]",–
O=C(CN1C(=O)CN=C(c2ccccc2)c2ccccc21)Nc1cccc(C(F)(F)F)c1,"inconclusive: 35.5 µM [inhibitor, single point]",–
O=C(NCCN1C(=O)S/C(=C\c2ccc(Cl)cc2)C1=O)c1ccc(F)c(S(=O)(=O)N2CCOCC2)c1,–,inactive: 7.26%
Fc1ccccc1CCNCc1cccc2ccccc12,"inconclusive: 4.11 µM [inhibitor, single point]",–
O=S(=O)(NCc1ccccc1)c1ccc(S(=O)(=O)N(Cc2ccccn2)Cc2ccco2)cc1,–,inactive: 12.3%
C=CCSc1nnc(NC(=O)CN2C(=O)NC3(CCCC3)C2=O)s1,"inconclusive: 5.62 µM [activator, single point]",–
N#Cc1ccc(-c2ccc(OCC(O)CN3CCOCC3)cc2)cc1 (stereo unspecified),–,inactive: 19.1%
COc1cccc(C2CC(c3cccc(NS(C)(=O)=O)c3)=NN2C(=O)c2ccccc2)c1OC (stereo unspecified),"inconclusive: 0.366 µM [activator, partial curve, poor fit]",–
Cc1ccc(NC(=O)CCC(=O)N/N=C/C=C/c2ccccc2)cc1,"inconclusive: 4.47 µM [inhibitor, partial curve]",–
CC(=O)OC1COC(OC(C)=O)CO1 (stereo unspecified),"inconclusive: 6.31 µM [activator, single point]",–
Cc1ccccc1CNC(=O)c1ccc(CSCc2ccccc2)cc1,–,inactive: 0.362%
COc1nccnc1NS(=O)(=O)c1ccc(NC(=O)c2ccc(F)cc2)cc1,–,inactive: 8.36% [at 46.1 µM]
CCc1ccc(CN(Cc2ccco2)C(=O)c2ccc(OC)cc2)cc1,–,inactive: -12.2% [at 46.1 µM]
CCCC1=Nc2cc(C(=O)NC3CCC(C)CC3)ccc2Sc2ccccc21 (stereo unspecified),"inconclusive: 0.891 µM [inhibitor, partial curve, poor fit]",–
O=C(/C=C/Nc1ccc(Br)cc1F)c1ccccc1,active: 1.26 µM,–
COc1ccc(N2CCN(C(=O)COC(=O)c3ccccc3OCc3ccc(F)cc3)CC2)cc1,"inconclusive: 35.5 µM [inhibitor, single point]",–
Cc1cc(Oc2ccc(C#N)cc2)nc(NCc2ccccc2)n1,"inconclusive: 12.6 µM [inhibitor, single point]",–
COc1ccc(NC(=O)N2c3ccccc3C(C)=CC2(C)C)cc1,–,inactive: 21.6% [at 46.1 µM]

# For convenience, 15 of the compounds above:
SMILES,Potency,"activity change, negative = inhibition"
Fc1ccccc1CCNCc1cccc2ccccc12,"inconclusive: 4.11 µM [inhibitor, single point]",–
O=S(=O)(NCc1ccccc1)c1ccc(S(=O)(=O)N(Cc2ccccn2)Cc2ccco2)cc1,–,inactive: 12.3%
C=CCSc1nnc(NC(=O)CN2C(=O)NC3(CCCC3)C2=O)s1,"inconclusive: 5.62 µM [activator, single point]",–
N#Cc1ccc(-c2ccc(OCC(O)CN3CCOCC3)cc2)cc1 (stereo unspecified),–,inactive: 19.1%
COc1cccc(C2CC(c3cccc(NS(C)(=O)=O)c3)=NN2C(=O)c2ccccc2)c1OC (stereo unspecified),"inconclusive: 0.366 µM [activator, partial curve, poor fit]",–
Cc1ccc(NC(=O)CCC(=O)N/N=C/C=C/c2ccccc2)cc1,"inconclusive: 4.47 µM [inhibitor, partial curve]",–
CC(=O)OC1COC(OC(C)=O)CO1 (stereo unspecified),"inconclusive: 6.31 µM [activator, single point]",–
Cc1ccccc1CNC(=O)c1ccc(CSCc2ccccc2)cc1,–,inactive: 0.362%
COc1nccnc1NS(=O)(=O)c1ccc(NC(=O)c2ccc(F)cc2)cc1,–,inactive: 8.36% [at 46.1 µM]
CCc1ccc(CN(Cc2ccco2)C(=O)c2ccc(OC)cc2)cc1,–,inactive: -12.2% [at 46.1 µM]
CCCC1=Nc2cc(C(=O)NC3CCC(C)CC3)ccc2Sc2ccccc21 (stereo unspecified),"inconclusive: 0.891 µM [inhibitor, partial curve, poor fit]",–
O=C(/C=C/Nc1ccc(Br)cc1F)c1ccccc1,active: 1.26 µM,–
COc1ccc(N2CCN(C(=O)COC(=O)c3ccccc3OCc3ccc(F)cc3)CC2)cc1,"inconclusive: 35.5 µM [inhibitor, single point]",–
Cc1cc(Oc2ccc(C#N)cc2)nc(NCc2ccccc2)n1,"inconclusive: 12.6 µM [inhibitor, single point]",–
COc1ccc(NC(=O)N2c3ccccc3C(C)=CC2(C)C)cc1,–,inactive: 21.6% [at 46.1 µM]
